# Patent US20250388666A1
# Amino acid sequences for entries named in this document (tags omitted). A change or cut given only in a name is not applied to a line headed by its entry. Residues count along the entry.
# UniProt P13688: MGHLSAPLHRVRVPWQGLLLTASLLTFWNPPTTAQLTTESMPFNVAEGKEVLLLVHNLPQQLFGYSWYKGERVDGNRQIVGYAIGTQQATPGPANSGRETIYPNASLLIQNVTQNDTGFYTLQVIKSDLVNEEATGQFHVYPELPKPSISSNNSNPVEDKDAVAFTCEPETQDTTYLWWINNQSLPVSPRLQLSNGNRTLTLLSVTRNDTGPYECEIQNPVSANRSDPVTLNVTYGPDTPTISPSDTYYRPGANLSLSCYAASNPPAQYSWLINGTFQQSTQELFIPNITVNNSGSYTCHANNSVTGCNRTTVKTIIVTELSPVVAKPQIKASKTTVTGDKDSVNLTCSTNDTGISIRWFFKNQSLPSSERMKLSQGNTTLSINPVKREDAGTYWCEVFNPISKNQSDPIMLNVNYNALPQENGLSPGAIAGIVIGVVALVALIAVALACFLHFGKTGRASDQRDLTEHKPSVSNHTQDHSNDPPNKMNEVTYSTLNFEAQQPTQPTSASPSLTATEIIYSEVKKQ
# UniProt P40198, residues 35-155: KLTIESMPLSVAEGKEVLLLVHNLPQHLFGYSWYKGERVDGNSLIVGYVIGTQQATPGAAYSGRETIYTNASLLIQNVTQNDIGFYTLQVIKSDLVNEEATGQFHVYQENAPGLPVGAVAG
# Residue numbers refer to the chain shown, from its start. Results are given in words; binding and its absence hold for the method and conditions named. Some results given as binding are weak or reduced against the parent protein; the word gives no strength.
# B1: Parent VH/L1 (antibody, IgG4, V domains shown)
# VH: EVQLLESGGGLVQPGGSLRLSCAASGFSFSDYYLYWVRQAPGKGLEWVATISVGGGQTSYADSVKGRFTISRDNSKNTLYLQMNSLRAEDTAMYYCTRGLYYGPAWFAYWGQGTLVTVSS
# VL: DIVMTQSPDSLAVSLGERATINCKSSQSLLNSANQKNYLAWYQQKPGQPPKLLIYFASTRESGVPDRFSGSGSGTDFTLTISSLQAEDVAVYYCQSHYPFYYTFGGGTKVEIK
# B2: He3/L20 (antibody, IgG4, V domains shown)
# VH: B1 VH with G99A, Y101T, F107L
# VL: B1 VL with Y98F, F100Y, Y101P, Y102L
# B3: He17/L1 (antibody, IgG4, V domains shown)
# VH: B1 VH with G99A, L100R, Y101T
# VL: B1 VL
# B4: He14/L1 (antibody, IgG4, V domains shown)
# VH: B1 VH with A105S, F107V
# VL: B1 VL
# B5: He13/L17 (antibody, IgG4, V domains shown)
# VH: B1 VH with A105S, F107L
# VL: B1 VL with F100Y, Y101P
# B6: He9/L4#2 (antibody, IgG4, V domains shown)
# VH: B1 VH with T97A, G99A, L100M
# VL: B1 VL with F100Y, Y101P
# B7: He14/L1 Fab (Fab, V domains shown)
# VH: B1 VH with A105S, F107V
# VL: B1 VL
# B8: Parent VH/L18 (antibody, IgG4, V domains shown)
# VH: B1 VH
# VL: B1 VL with Y98F, F100Y, Y101P, Y102F
# B9: He17/L16 (antibody, IgG4, V domains shown)
# VH: B1 VH with G99A, L100R, Y101T
# VL: B1 VL with F100Y, Y101P, Y102F
# B10: He4/L16 (antibody, IgG4, V domains shown)
# VH: B1 VH with G99A
# VL: B1 VL with F100Y, Y101P, Y102F
# B11: He9/L3 (antibody, IgG4, V domains shown)
# VH: B1 VH with T97A, G99A, L100M
# VL: B1 VL with Y98F, Y101P, Y102F
# B12: Parent VH/L4#2 (antibody, IgG4, V domains shown)
# VH: B1 VH
# VL: B1 VL with F100Y, Y101P
# B13: He9/L6 (antibody, IgG4, V domains shown)
# VH: B1 VH with T97A, G99A, L100M
# VL: B1 VL with Y101S, Y102F
# B14: He9/L17 (antibody, IgG4, V domains shown)
# VH: B1 VH with T97A, G99A, L100M
# VL: B1 VL with F100Y, Y101P
# Target: human GST-CEACAM1 (human) (UniProt P13688)
# Assay: blocking ELISA: plate-coated human TIM-3 IgV domain (3 µg/mL), hCEACAM1-GST (4 µM) added with antibody at 0-250 nM; bound CEACAM1-GST detected with anti-GST antibody, OD 450 nm; blocked ligand: TIM-3
row,binding,Binder
1,binds,B1
2,binds,B2
3,binds,B3
4,binds,B4

# Target: CEACAM1 (Sino Biological) (human) (UniProt P13688)
# Assay: SPR single-cycle
row,binding,Binder
1,binds,B5

# Target: CEACAM3 (Sino Biological) (human) (UniProt P40198)
# Assay: SPR single-cycle, IgG on Protein A
row,binding,Binder
1,no binding (tested: 25 nM to 200 nM),B6

# Target: tagless CEACAM1 expressed in E. coli (crystal structure, PDB 7N3W) (human) (UniProt P13688)
# Assay: co-crystal structure
row,binding,Binder
1,binds,B7

# Target: CEACAM3 (Sino Biological) (human) (UniProt P40198)
# Assay: binding ELISA on plate-coated CEACAM (0.5 µg/mL); antibody at 1.67, 0.062 and 0.0069 µg/mL; signal as % of parent IgG on CEACAM1 at 1.67 µg/mL on the same plate
row,binding,Binder
1,no binding (tested: 1.67 µg/mL),B6

# Target: CEACAM1 on transfected HeLa cells (Homo sapiens (Human)) (UniProt P13688)
# Assay: flow cytometry, transfected HeLa
row,binding,Binder
1,binds,B1
2,binds,B8
3,binds,B9
4,binds,B10
5,binds,B11
6,binds,B12
7,binds,B13
8,binds,B2
9,binds,B14
10,binds,B3
11,binds,B4
12,binds,B6
